Results are given in words; binding and its absence hold for the method and conditions named. For some assays here: Binding seen in cells or lysates may run through a third protein. Some entries that bind do so weakly or less than the wild type. Tags and fused reporters may be left off the sequences shown. Values belong to the binder of their own block, whether it stands above or below them.
Legend:
[1] = target: NAC089 (yeast two-hybrid fusion) (Arabidopsis thaliana) (UniProt Q94F58); experiment: two-hybrid; yeast 2-hybrid assay of NAC089 dimer formation (Figure S3C-D); constructs and reporters not described
[2] = target: NAC089 (BiFC fusion) (Arabidopsis thaliana) (UniProt Q94F58); experiment: split reporter; BiFC of NAC089 dimer formation (Figure S3E-F), seen by laser confocal fluorescence microscopy (Zeiss LSM A710); host cells not stated

binding [1]: binds
B1: NAC089 (yeast two-hybrid fusion) (protein, UniProt Q94F58 1-340)
chain: MDTKAVGVSKDTAASMEASTVFPGFKFSPTDVELISYYLKRKMDGLERSVEVIPDLEIYNFEPWDLPDKSIVKSDSEWFFFCARGKKYPHGSQNRRATKMGYWKATGKERDVKSGSEVIGTKRTLVFHIGRAPKGERTDWIMHEYCVKGVSLDDAMVVCRVRRNKEYNSGTSQKAPKPNSSAEKHAKVQNGATSSGSPSDWDNLVDFYLAGESGEKLLAEMAESSENLQVDNDEDFFADILRDEIINLDEAVMTGNTPNEVPTLESASMEIRVLPLPNMIDKQMSSLLEERPSQKKKGKDATESLSSCFVGLYSIKSVNKARWDVIIGVVALIAMLFYLE

binding [2]: binds
B2: NAC089 (BiFC fusion) (protein, UniProt Q94F58 1-340)
chain: B1 chain
